PubChem BioAssay AID504784 – Drosophila RNAi Screening Center | 2011
Aim: 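Genome-wide knock-down for genes giving too much or too little stored lipid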 (primary screen). Cell system: Drosophila Kc167 embryonic cells. Reagents: long dsRNA against Drosophila genes, about 250 ng dsRNA per well. Timing: 4 days. Treatment: cells fed 400 µM oleic acid bound to BSA. Detection: 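Microscope images give a droplet-to-nucleus area ratio, taken as log and converted to a screen-wide B-score; higher values mean greater lipid storage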. Reading the numbers: droplet/nuclear area B-score: higher = more stored lipid (overstorage).
The screen tested about 17,000 reagents; shown is an unselected part of those that have a named target and a result. 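Each column is one replicate's B-score; the combined score over replicates was not deposited, so single values may mislead.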 Not all columns of the deposit are shown.

After knock-down of WASp [DRSC15032] the results were droplet/nuclear area B-score, replicate 1 = -0.854.
Silencing of ArfGAP1 (ADP-ribosylation factor GTPase activating protein 1) [DRSC11173] gave: droplet/nuclear area B-score, replicate 1 = -1.06.
CG1688 [DRSC05934] showed droplet/nuclear area B-score, replicate 1 = -1.95.
With knock-down of CG1688 [DRSC23207], the record shows droplet/nuclear area B-score, replicate 1 = -1.01.
With knock-down of CG17744 [DRSC10286], the record shows droplet/nuclear area B-score, replicate 1 = -1.32.
For salto [DRSC06291], the entry reads droplet/nuclear area B-score, replicate 1 = 0.012.
CG43325 [DRSC04157] showed droplet/nuclear area B-score, replicate 1 = 0.0587.
Against Jra (Jun-related antigen) [DRSC07447], the values are droplet/nuclear area B-score, replicate 1 = -2.39.
For CG11593 [DRSC08206], the values are droplet/nuclear area B-score, replicate 1 = 0.575.
For CG5265 [DRSC15756] the deposit lists droplet/nuclear area B-score, replicate 1 = 0.0285.
mesh [DRSC14472] gave droplet/nuclear area B-score, replicate 1 = 2.03.
For mesh [DRSC15098] the deposit lists droplet/nuclear area B-score, replicate 1 = -0.187.
Knock-down of mesh [DRSC15099] came out at: droplet/nuclear area B-score, replicate 1 = -0.0355.
For CG6938 [DRSC10752], the values are droplet/nuclear area B-score, replicate 1 = -0.548.
Against pkm (Pinkman) [DRSC19674], the values are droplet/nuclear area B-score, replicate 1 = 0.00208.
With knock-down of EndoU (Endoribonuclease U-specific) [DRSC15472], the screen gave droplet/nuclear area B-score, replicate 1 = 0.00548.
For CG14965 [DRSC08424] the deposit lists droplet/nuclear area B-score, replicate 1 = -1.12.
Knock-down of Prosalpha3T (Proteasome alpha3 subunit, Testis-specific) [DRSC15226] resulted in: droplet/nuclear area B-score, replicate 1 = -0.214.

Sorted by “droplet/nuclear area B-score, replicate 1” (ascending): 2 of the entries above.
Jra (Jun-related antigen) [DRSC07447] — droplet/nuclear area B-score, replicate 1 = -2.39
CG11593 [DRSC08206] — droplet/nuclear area B-score, replicate 1 = 0.575

The list goes on.
With knock-down of Ir7a (Ionotropic receptor 7a) [DRSC17866] the results were droplet/nuclear area B-score, replicate 1 = -0.144.
Against link [DRSC06368], the values are droplet/nuclear area B-score, replicate 1 = -0.176.
Against Tsp42Ec (Tetraspanin 42Ec) [DRSC06192], the entry reads droplet/nuclear area B-score, replicate 1 = -0.086.
Knock-down of CG14641 [DRSC12227] gave: droplet/nuclear area B-score, replicate 1 = -0.421.
For CG4617 [DRSC18377], the values are droplet/nuclear area B-score, replicate 1 = 1.12.
Knock-down of msl-2 (male-specific lethal 2) [DRSC00829] gave: droplet/nuclear area B-score, replicate 1 = 0.664.
Depletion of CG32453 [DRSC21673] resulted in: droplet/nuclear area B-score, replicate 1 = 0.133.
e(r) (enhancer of rudimentary) [DRSC18768] gave droplet/nuclear area B-score, replicate 1 = -0.139.
trn (tartan) [DRSC11407] scored droplet/nuclear area B-score, replicate 1 = 0.154.
